A: 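Assay on Mycobacterium tuberculosis, filed only as a heat shock assay from Cornell; the read-out is not stated. The concentration is filed as 10 mM, unlikely as a test dose, so the dose is not known. The record gives no direction; compounds that gave an IC50 in retests scored well above the rest, so higher reads as stronger inhibition. Of about 69,000 compounds tested this way, about 930 (1.4%) reached 50% or more in at least one test.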
B: 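Whole-cell assay for inhibitors of Mycobacterium tuberculosis growth, labelled Cornell in the record; the read-out is not stated. The concentration is filed as 10 mM, unlikely as a test dose, so the dose is not known. Higher means stronger inhibition (inferred from two other growth screens of the library). About 53,000 compounds were tested under these conditions; 1.7% (about 900) showed 50% or more at least once.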
C: 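Primary screen of methionyl-tRNA synthetase; the read-out is not stated. Target: Methionyl-tRNA synthetase (putative), Leishmania donovani (UniProt E9BF75). The test concentration is not given. The values are filed as inhibition. About 68,000 compounds were tested under these conditions; 0.035% (about 24) showed 50% or more at least once.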

Chains of the proteins cited; added tags and fusions are not shown.
UniProt E9BF75, entry or part of it: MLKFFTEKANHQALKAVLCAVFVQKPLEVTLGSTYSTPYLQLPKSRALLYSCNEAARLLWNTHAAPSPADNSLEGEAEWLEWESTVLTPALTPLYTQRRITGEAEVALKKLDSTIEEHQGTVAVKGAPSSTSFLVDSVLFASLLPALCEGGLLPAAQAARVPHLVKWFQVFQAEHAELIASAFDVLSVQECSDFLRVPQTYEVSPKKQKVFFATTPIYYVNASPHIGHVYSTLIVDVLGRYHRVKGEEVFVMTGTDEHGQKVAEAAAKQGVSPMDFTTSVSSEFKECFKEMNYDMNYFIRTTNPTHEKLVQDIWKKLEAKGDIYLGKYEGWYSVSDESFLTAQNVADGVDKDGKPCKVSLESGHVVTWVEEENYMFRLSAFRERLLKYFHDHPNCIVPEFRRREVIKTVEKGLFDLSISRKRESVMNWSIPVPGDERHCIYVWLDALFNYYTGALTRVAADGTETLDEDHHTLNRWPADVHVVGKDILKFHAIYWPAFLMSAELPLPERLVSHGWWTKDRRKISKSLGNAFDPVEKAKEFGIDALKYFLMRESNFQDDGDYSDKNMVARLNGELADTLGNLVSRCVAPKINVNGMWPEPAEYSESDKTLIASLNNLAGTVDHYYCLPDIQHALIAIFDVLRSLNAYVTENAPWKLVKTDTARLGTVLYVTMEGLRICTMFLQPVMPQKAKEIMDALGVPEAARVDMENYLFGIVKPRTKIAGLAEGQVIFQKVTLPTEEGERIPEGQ

All values are in %.
How 0% and 100% were set is not recorded. Most values in the screen are low, and negative values occur.
Compounds were drawn at random from those tested, without regard to their results.

COc1ncc(CN(CCCN2CCOCC2)Cc2ccc(C)o2)cn1 read C: 10.32%. Cc1nc(C2CCCN(C(=O)CCCn3cccn3)C2)no1 (centres unmarked) read A: -17.57%; B: -3.92%; C: 5.263%. For Cc1n[nH]cc1CNCC(c1ccsc1)N(C)C (centres unmarked) the result was A: 11.62%; B: 2.384%; C: 13.04%. Result for CCCc1noc(CCC(=O)N2CCCC2c2ccc(OC)cc2)n1 (centres unmarked) was A: -12.37%; C: 23.38%.

With COc1ccc(-c2noc(C3CCS(=O)(=O)C3)n2)cc1OC (centres unmarked) the screen gave A: 0.04851%; B: -7.997%; C: 13.98%. [H][C@@]12COC[C@H](C(=O)N3CCOCC3)[C@]1([H])CN(CC1CCC1)C2 read A: -6.62%; B: 30.51%. Cc1cccc2[nH]c(C3CCCN(Cc4ccccc4C(=O)O)C3)nc12 (centres unmarked) read A: -7.292%; C: 2.872%. O=C(NCCNc1cnccn1)N1CCCCCC1 gave A: 3.425%; B: -36.99%; C: 14.25%.

For NCc1n[nH]c(-c2ccc(Br)cc2)n1 the result was A: -2.295%; B: 31.44%; C: 6.954%. COc1ccc(C(=O)N2C[C@@H](CN3CCCC3)[C@@H](CO)C2)c(C)c1 gave A: -4.055%; C: 1.099%. O=C(CCOc1ccccc1)N1CCCC(n2cncn2)C1 (centres unmarked) gave A: 4.405%; C: 13.22%. Result for O=S(=O)(NCCCn1cncn1)c1ccc2c(c1)CCCC2 was A: 13.56%; B: -0.342%; C: 5.962%.

For CCc1n[nH]c(C2CN(C(=O)CCOCC(F)(F)F)CCO2)n1 (centres unmarked) the result was A: 9.336%; B: -1.882%; C: 3.359%. CC(C)(CO)CNC(=O)c1ccnn1-c1ccc2ccccn12 gave A: -26.25%; B: 36.43%; C: 14.13%. Result for c1ccc(Cc2noc(CN3CCCCC3Cn3cccn3)n2)cc1 (centres unmarked) was A: -8.546%; B: -5.457%; C: 18.52%. With CCC(CC)n1ncc(C(=O)NS(=O)(=O)c2ccsc2)c1C the screen gave A: -11.86%; B: -22.65%; C: -6.211%.

CC1CN(CC2CCCCC2)CCN1c1ccc2nncn2n1 (centres unmarked) read A: 16.09%; B: -20.42%; C: 4.908%. For CC(=O)NC1CCN(c2cnc(C3CCNCC3)cn2)CC1.Cl the result was A: -24.22%; B: 1.232%. For O=C(CC1CC1)N[C@@H]1CN(Cc2ccco2)C[C@@H]2CCCO[C@@H]21 the result was C: 16.3%. CCC(=O)NC1CCN(c2cccc(OC(F)(F)F)c2)C1=O (centres unmarked) read A: -2.424%; B: 13.87%; C: 20.69%.

With CN1C[C@H]2N(c3ncccn3)CCC[C@@]2(C(=O)NCC2CC2)C1 the screen gave C: 6.718%. For CN1CCC(CNC(=O)Cc2ccc(N(C)C)cc2)CC1 the result was A: 4.026%; B: 18.15%; C: 9.924%. For O=C(c1coc2ccccc12)N1CCCC(O)(CO)CC1 (centres unmarked) the result was A: 10.78%; B: -0.411%; C: 12.32%. O=C(c1csc(-c2ccccn2)n1)N1CCCC1Cn1cccn1 (centres unmarked) read A: -6.528%; B: 1.956%; C: 13.69%.

For CS(=O)(=O)N1C[C@H]2N(c3ncccn3)CCC[C@@]2(C(=O)NCC2CC2)C1 the result was C: 14.99%. With CCc1ccccc1NC(=O)CCc1cnn(C)c1 the screen gave A: 0.4781%; B: -37.35%; C: 15.58%. For O=S(=O)(c1ccc(-c2cnco2)cc1)N1CCCC2(CCNCC2)CC1 the result was A: 8.486%; B: -3.285%; C: 21.69%. With Cc1nccc(N2CCC(=O)N(Cc3ccc(F)cc3)C(C(C)C)C2)n1 (centres unmarked) the screen gave A: 2.116%; B: 8.455%; C: 15.93%.

With Cc1cc(NC2CCN(c3ccccc3)C2)n2ncnc2n1 (centres unmarked) the screen gave A: 2.087%; C: 19.6%. CCC(CC)c1nnc(NC(=O)N2CCC(C(N)=O)CC2)s1 read A: -11.46%; B: 4.628%; C: 6.443%. For O=C(C1CCCC1)N1CC(c2nc(Cc3ccccc3)no2)C1 the result was A: -17.18%; B: 24.21%; C: 8.741%. COC(=O)c1ccccc1NC(=O)c1nc2ccccc2n(C)c1=O gave A: 22.49%; B: 11.42%; C: 10.78%.

CN(C)S(=O)(=O)c1ccc2c(c1)N(Cc1nccn1C)CC2 read A: -13.87%; C: 13.71%. For NC(=O)c1ccc(=O)n(Cc2cc(Br)ccc2Cl)n1 the result was A: -10.69%; C: 14.21%. With Cc1nc(Cn2c3c(ccc2=O)CC(N)CC3)cs1 (centres unmarked) the screen gave A: 30.42%; B: -25.62%; C: 5.714%. Cc1nc(C)n(CC2CCCCN2Cc2nnc(-c3ccco3)o2)n1 (centres unmarked) read A: 3.154%; B: 16.75%; C: 18.57%.

For CCn1cc(C(=O)N2CCCC3(CCC(=O)N(CCC(C)C)C3)C2)cn1 (centres unmarked) the result was A: 18.65%; B: -38.06%; C: 8.675%. O=S(=O)(c1cccs1)N1CCCC2(COCCN(c3cccnc3)C2)C1 (centres unmarked) read C: 19.4%.

The last 2 entries again:

Result for CCn1cc(C(=O)N2CCCC3(CCC(=O)N(CCC(C)C)C3)C2)cn1 (centres unmarked) was A: 18.65%; B: -38.06%; C: 8.675%.
Result for O=S(=O)(c1cccs1)N1CCCC2(COCCN(c3cccnc3)C2)C1 (centres unmarked) was C: 19.4%.

Source: ChEMBL document CHEMBL3988442, “University of Dundee, Small-Polar-MMV Screening Library” (2021).